# Data: publication PMC6265484, “Homodimerization regulates an endothelial specific signature of the SOX18 transcription factor” (Nucleic Acids Research, 2018)
# Assays:
# [1] = target: T1, SOX18 full length (mouse) (UniProt P43680); assay: fluorescence polarization; details: 2 mM Mg2+, lower mP than IR5; FP: 30 mM HEPES pH 7.5, 100 mM KCl, 40 mM NaCl, 10 mM ammonium acetate, 10 mM guanidinium HCl, 2 mM MgCl2, 0.5 mM EDTA, 0.01% NP-40, room temp, 5 nM DNA, 5-150 nM protein; recombinant protein; protein details: N-terminal HIS-GST; label: 5'-fluorescein
# T1 sequence (looked up, limits assumed): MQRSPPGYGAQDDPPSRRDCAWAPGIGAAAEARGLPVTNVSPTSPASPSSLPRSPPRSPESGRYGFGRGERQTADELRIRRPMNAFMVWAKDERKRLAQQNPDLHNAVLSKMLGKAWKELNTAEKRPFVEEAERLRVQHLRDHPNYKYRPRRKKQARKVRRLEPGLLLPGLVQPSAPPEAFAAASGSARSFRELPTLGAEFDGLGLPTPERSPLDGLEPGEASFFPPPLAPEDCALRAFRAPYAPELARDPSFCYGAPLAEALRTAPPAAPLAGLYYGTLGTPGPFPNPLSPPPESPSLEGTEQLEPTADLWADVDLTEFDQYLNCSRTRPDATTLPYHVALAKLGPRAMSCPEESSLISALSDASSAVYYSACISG
# SOX18DIM/SOX7 swap = assay: AlphaScreen; details: dose-dependent signal with IR5, monomers co-bind; protein translated in vitro
Sequence,binding result [1],binding result (SOX18DIM/SOX7 swap)
CGCCAGTAACAATAGGGCGGCTTATTGTTCCGGGGGC (double strand) [IR10 (FP)],binds more weakly,
CGCCAGTAGGAACAATGCGGCATTGTTTTCCGGGGGC (double strand) [IR5 (AlphaScreen)],,binds

# For at least one entry, the source does not settle the construct or the ends of the probe. For some assays here: A weaker result is weaker than the reference pair of the same experiment. For some assays here: At least one verdict rests on a figure or table, not on a statement of the authors. For some assays here: Protein sequences can lack the tags named with them.
